log2 fold change data for 24 targets are collected here from the supplement of paper PMC10849652.

By UniProt entry, the sequences of proteins in these tests, tags left out. Where a name states a change or a piece, a line headed by the entry shows the natural chain unless it says otherwise.
UniProt Q86WA6: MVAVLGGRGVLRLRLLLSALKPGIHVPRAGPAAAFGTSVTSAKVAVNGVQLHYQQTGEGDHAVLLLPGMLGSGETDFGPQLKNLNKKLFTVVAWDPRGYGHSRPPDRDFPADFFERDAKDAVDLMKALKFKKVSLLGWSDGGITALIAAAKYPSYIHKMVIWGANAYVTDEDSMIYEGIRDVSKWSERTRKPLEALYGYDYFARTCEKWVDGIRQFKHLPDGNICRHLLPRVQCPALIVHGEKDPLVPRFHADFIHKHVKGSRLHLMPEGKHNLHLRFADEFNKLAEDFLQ
UniProt Q9UQB8: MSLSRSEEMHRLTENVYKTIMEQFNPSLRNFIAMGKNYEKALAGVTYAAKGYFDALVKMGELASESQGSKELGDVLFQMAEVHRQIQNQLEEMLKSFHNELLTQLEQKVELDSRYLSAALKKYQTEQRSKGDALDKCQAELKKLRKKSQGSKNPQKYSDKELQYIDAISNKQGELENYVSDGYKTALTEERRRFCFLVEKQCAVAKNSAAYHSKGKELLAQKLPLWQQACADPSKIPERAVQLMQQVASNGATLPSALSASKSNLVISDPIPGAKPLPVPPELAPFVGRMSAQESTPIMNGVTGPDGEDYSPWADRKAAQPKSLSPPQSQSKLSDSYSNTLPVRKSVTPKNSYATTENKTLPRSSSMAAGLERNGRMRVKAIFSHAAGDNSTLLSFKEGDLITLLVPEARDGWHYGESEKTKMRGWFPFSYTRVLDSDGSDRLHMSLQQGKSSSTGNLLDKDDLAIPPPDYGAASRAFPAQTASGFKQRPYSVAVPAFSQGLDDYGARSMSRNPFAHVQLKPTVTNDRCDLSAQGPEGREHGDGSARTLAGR
UniProt Q14457, whole entry, looked up: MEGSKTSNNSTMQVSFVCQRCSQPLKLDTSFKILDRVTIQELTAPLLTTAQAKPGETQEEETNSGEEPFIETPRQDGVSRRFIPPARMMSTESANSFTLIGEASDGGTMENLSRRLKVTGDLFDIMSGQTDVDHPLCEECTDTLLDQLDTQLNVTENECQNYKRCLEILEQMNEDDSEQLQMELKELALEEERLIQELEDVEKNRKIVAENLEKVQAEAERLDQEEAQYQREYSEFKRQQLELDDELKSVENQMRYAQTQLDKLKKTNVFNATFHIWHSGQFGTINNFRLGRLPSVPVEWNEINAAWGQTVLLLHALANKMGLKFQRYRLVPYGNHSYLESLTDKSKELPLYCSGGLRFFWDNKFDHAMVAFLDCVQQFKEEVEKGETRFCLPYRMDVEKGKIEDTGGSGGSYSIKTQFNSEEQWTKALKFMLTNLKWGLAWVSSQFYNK
UniProt P51572: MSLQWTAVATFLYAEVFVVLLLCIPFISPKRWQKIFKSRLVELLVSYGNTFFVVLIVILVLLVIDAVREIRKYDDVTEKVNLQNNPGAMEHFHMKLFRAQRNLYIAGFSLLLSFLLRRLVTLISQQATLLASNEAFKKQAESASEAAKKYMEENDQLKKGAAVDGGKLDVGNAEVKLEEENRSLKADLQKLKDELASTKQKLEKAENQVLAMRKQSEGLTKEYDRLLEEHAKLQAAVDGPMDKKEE
UniProt P51587, whole entry, looked up: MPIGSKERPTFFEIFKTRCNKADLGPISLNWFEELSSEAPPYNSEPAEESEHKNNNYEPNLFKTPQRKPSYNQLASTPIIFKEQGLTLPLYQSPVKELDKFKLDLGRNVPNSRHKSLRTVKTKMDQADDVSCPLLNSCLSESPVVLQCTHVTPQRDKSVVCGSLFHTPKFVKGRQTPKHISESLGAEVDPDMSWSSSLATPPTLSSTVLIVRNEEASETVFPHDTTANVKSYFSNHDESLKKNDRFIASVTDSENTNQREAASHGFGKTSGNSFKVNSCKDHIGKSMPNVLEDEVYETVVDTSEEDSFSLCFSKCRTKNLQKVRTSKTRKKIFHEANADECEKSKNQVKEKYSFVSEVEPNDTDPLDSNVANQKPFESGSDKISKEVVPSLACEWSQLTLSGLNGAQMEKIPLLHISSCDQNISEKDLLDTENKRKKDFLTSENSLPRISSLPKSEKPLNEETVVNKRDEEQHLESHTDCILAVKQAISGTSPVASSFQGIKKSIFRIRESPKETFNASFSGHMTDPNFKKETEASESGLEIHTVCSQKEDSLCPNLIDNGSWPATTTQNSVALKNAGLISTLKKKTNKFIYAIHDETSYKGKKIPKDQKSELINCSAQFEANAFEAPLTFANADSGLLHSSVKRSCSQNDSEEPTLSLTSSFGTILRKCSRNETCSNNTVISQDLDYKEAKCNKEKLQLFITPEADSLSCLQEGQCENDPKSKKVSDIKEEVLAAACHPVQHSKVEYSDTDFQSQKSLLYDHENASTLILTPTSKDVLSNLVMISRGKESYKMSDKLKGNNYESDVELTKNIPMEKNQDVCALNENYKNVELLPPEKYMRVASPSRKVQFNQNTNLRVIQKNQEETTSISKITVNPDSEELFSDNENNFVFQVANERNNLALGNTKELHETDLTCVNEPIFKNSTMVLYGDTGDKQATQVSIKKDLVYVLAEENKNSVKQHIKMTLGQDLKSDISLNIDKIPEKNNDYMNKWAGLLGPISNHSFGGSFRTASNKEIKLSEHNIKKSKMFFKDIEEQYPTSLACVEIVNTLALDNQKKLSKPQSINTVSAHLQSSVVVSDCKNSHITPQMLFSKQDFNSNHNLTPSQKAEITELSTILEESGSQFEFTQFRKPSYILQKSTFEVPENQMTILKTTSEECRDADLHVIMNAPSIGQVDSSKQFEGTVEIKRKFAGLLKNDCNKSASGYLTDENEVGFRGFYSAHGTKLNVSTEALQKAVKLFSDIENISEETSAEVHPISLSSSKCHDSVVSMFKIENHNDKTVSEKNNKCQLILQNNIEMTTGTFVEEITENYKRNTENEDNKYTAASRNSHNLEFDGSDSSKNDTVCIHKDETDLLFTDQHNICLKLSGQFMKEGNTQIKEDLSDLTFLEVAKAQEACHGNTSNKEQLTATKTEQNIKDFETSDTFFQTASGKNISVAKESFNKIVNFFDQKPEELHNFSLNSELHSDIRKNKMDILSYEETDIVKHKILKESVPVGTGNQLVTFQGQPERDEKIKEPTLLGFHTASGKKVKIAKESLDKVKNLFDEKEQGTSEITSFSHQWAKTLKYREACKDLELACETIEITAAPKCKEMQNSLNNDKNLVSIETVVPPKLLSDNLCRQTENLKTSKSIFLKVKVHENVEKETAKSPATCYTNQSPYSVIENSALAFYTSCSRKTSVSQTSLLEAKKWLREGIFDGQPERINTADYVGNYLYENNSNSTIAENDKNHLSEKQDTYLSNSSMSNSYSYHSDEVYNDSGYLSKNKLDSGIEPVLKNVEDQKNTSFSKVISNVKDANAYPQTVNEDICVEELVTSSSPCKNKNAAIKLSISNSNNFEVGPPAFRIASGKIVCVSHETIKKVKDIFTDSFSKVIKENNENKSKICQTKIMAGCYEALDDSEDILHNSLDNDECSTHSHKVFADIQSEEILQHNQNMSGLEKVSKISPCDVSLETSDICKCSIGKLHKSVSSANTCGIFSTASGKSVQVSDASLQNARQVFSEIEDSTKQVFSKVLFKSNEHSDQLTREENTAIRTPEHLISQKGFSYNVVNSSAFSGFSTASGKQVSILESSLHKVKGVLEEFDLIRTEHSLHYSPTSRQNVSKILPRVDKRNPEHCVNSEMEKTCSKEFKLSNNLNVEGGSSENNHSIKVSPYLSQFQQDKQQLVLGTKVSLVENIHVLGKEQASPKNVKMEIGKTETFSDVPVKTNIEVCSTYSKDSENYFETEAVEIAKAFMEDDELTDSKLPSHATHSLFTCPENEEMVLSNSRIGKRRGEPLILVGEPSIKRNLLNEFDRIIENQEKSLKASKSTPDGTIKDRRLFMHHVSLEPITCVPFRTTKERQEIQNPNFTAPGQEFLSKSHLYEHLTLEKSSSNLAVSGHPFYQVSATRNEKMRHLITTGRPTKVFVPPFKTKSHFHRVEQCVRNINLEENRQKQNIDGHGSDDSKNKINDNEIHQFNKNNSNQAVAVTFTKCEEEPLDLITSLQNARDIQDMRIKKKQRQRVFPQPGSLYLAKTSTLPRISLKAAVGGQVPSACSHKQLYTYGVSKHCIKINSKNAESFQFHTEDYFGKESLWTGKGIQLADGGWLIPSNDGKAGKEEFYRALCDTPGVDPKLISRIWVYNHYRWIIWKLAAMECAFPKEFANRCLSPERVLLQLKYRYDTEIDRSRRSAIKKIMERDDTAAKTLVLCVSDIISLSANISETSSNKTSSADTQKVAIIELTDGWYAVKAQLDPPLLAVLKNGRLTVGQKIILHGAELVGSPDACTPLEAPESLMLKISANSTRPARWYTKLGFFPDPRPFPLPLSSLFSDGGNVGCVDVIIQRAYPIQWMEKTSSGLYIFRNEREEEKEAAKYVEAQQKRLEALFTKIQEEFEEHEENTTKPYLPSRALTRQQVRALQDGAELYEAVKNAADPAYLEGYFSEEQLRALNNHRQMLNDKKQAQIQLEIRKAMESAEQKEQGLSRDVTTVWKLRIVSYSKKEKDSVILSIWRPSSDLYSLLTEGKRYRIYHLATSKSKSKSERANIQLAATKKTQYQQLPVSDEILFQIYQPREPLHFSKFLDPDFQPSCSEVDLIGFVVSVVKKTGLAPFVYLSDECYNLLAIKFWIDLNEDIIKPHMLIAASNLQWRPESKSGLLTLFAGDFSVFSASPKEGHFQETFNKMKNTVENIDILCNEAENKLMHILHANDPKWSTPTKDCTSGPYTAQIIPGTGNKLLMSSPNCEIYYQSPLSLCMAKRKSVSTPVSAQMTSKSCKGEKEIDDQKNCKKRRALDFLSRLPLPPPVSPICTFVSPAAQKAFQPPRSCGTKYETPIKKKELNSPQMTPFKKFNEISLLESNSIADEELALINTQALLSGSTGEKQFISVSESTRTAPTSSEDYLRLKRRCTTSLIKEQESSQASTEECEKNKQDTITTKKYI
UniProt P25440, whole entry, looked up: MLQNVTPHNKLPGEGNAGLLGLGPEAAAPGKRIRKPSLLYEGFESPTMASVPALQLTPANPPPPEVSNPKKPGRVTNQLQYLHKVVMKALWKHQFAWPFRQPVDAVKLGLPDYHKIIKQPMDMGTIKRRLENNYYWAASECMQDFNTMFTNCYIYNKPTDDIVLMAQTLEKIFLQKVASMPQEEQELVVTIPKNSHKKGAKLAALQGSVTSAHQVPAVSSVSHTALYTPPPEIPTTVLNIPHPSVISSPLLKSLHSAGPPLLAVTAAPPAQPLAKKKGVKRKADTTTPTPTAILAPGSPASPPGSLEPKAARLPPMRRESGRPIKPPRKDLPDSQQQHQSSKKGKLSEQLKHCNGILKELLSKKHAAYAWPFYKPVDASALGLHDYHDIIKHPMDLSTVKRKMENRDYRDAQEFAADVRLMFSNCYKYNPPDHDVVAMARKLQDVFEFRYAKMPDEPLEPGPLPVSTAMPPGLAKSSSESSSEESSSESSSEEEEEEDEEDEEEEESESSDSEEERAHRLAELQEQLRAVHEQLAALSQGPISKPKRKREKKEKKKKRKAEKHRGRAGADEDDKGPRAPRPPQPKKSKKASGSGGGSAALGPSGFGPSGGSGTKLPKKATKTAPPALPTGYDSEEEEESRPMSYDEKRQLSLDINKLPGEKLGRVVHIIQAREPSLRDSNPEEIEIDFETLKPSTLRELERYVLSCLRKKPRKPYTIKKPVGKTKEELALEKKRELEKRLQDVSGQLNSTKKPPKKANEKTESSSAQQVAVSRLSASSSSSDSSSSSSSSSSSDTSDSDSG
UniProt Q92934: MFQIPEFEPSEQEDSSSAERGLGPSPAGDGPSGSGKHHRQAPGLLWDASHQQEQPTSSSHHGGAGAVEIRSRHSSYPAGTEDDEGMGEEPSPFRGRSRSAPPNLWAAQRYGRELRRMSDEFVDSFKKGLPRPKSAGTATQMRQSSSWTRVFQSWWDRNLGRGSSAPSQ
UniProt P15291: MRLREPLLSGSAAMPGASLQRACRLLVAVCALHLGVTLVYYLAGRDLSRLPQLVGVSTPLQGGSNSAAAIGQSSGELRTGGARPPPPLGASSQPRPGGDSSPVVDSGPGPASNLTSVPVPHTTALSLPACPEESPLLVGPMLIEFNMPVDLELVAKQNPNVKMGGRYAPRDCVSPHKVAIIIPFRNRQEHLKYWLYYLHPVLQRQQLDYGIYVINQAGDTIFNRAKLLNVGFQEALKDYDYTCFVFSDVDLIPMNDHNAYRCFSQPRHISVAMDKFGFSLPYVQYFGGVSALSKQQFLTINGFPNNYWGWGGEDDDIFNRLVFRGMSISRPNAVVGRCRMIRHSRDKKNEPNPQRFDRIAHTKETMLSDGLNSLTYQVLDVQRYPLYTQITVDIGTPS
UniProt P30043: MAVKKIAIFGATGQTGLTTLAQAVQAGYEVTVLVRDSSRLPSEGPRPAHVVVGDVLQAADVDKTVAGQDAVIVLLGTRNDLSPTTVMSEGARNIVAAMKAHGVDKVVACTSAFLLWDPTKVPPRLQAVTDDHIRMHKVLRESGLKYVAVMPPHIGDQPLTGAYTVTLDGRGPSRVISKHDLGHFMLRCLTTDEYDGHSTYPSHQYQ

Holding throughout (test): log2 fold change, soluble protein after heating vs DMSO (PISA); higher = thermal stabilisation; K562 lysate, 10 uM; active = over 0.2 and 3.5 SD of the protein, either way, in both replicates (recomputed)
Compound in assay [1]: NCC(=O)Nc1ccc(-n2nc(C(F)(F)F)cc2-c2ccc3c(ccc4ccccc43)c2)cc1
Put shortly:
(§1)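 Pellets of K562 cells were dounce-homogenised in PBS pH 7.4 with 1 mM MgCl2, and the crude extract was held at 1 mg/mL protein for a 30 min treatment with 10 μM compound. Aliquots were heated for 3 min over 48°C-58°C and pooled before NP-40 was added to 0.5% at 4°C. The supernatant from 21,000xg for 90 min was quantified by TMTpro 16plex LC-MS/MS with channel sums equalised. Values are reported from duplicates as log-two fold change in thermal stability relative to solvent controls.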

Compound in assay [2]: O=C(CCCCCCC(=O)Nc1ccccc1)NO [vorinostat]
In short, it runs like this: as §1

Compound in assay [3]: O=C(O)c1ccc2c(c1)nc(Nc1cccc(Cl)c1)c1ccncc12 [silmitasertib]
In short, it runs like this: as §1

Compound in assay [4]: O=C1NC(=O)C(c2cnc3ccccn23)=C1c1cn2c3c(cc(F)cc13)CN(C(=O)N1CCCCC1)CC2
Put shortly: as §1

Compound in assay [5]: c1cn2cc(-c3ccc4cn[nH]c4c3)nc(Nc3ccc(N4CCOCC4)cc3)c2n1 [entospletinib]
In short, it runs like this: as §1

The list shows a part of the results.

On to BTAF1 (UniProt O14981), for which the log2 fold change in assay [1] is inactive: 0.01; in assay [2] it was active: -0.45; in assay [3], inactive: 0.003; in assay [4], inactive: -0.008; in assay [5], inactive: -0.031.

For BPHL (UniProt Q86WA6), the log2 fold change in assay [1] is inactive: -0.093; in assay [2], inactive: 0.143; in assay [3], inactive: 0.049; in assay [4], inactive: -0.006; in assay [5] it was inactive: 0.028.

For the target BAIAP2 (UniProt Q9UQB8), the log2 fold change in assay [1] was inactive: 0.037; in assay [2] it was inactive: 0.19; in assay [3], inactive: -0.006; in assay [4] it was inactive: -0.002; in assay [5], inactive: -0.019.

Consider BCKDHA (UniProt P12694), for which the log2 fold change is inactive: 0.113 in assay [1]; inactive: -0.123 in assay [2]; inactive: 0.091 in assay [3]; inactive: -0.051 in assay [4]; inactive: -0.028 in assay [5].

Turning to BECN1 (UniProt Q14457), the log2 fold change in assay [1] was inactive: -0.034; in assay [2], inactive: -0.08; in assay [3], inactive: 0.022; in assay [4], inactive: -0.002; in assay [5] it was inactive: -0.014.

Take BCAP31 isoform 2 (UniProt P51572): the log2 fold change in assay [1] was inactive: 0.009; in assay [2], inactive: 0.113; in assay [3], inactive: -0.01; in assay [4], inactive: -0.02; in assay [5], inactive: -0.005.

With BABAM2 (UniProt Q9NXR7), the log2 fold change in assay [1] was inactive: -0.008; in assay [2], inactive: -0.017; in assay [3], inactive: 0.014; in assay [4], inactive: 0.036; in assay [5], inactive: -0.038.

As for BRCA2 (UniProt P51587), the log2 fold change was inactive: 0.061 in assay [1]; inactive: -0.079 in assay [2]; inactive: 0.224 in assay [3]; inactive: 0.038 in assay [4]; inactive: -0.01 in assay [5].

For BCL2L2 isoform 2 (UniProt Q92843), the log2 fold change in assay [1] is inactive: -0.012; in assay [2], inactive: 0.043; in assay [3], inactive: 0.006; in assay [4], inactive: -0.018; in assay [5], inactive: 0.018.

With BLOC1S5 (UniProt Q8TDH9), the log2 fold change was inactive: -0.047 in assay [1]; inactive: 0.083 in assay [2]; inactive: -0.02 in assay [3]; inactive: -0.009 in assay [4]; inactive: 0.034 in assay [5].

In the case of BMS1 (UniProt Q14692), the log2 fold change in assay [1] was inactive: 0.024; in assay [2], inactive: -0.037; in assay [3], inactive: 0.04; in assay [4], inactive: 0.033; in assay [5], inactive: 0.045.

For the target BCR (UniProt P11274), the log2 fold change is inactive: 0.012 in assay [1]; active: -0.267 in assay [2]; inactive: 0.005 in assay [3]; inactive: 0.001 in assay [4]; inactive: -0.009 in assay [5].

In the case of BCL2L13 (UniProt Q9BXK5), the log2 fold change was inactive: -0.016 in assay [1]; inactive: 0.1 in assay [2]; inactive: 0.012 in assay [3]; inactive: -0.013 in assay [4]; inactive: 0.019 in assay [5].

For the target BAZ1A (UniProt Q9NRL2), the log2 fold change is inactive: 0.143 in assay [1]; inactive: -0.018 in assay [2]; inactive: 0.249 in assay [3]; inactive: -0.018 in assay [4]; inactive: -0.09 in assay [5].

In the case of BRD2 isoform 2 (UniProt P25440), the log2 fold change was inactive: 0.048 in assay [1]; inactive: 0.107 in assay [2]; inactive: 0.074 in assay [3]; inactive: 0.051 in assay [4]; inactive: 0.021 in assay [5].

Regarding BNIP2 (UniProt J3KN59), the log2 fold change in assay [1] was inactive: 0.072; in assay [2], inactive: -0.114; in assay [3], inactive: 0.048; in assay [4], inactive: -0.041; in assay [5], inactive: -0.21.

Regarding BOLA3 (UniProt Q53S33), the log2 fold change in assay [1] is inactive: -0.06; in assay [2], inactive: -0.002; in assay [3] it was inactive: -0.026; in assay [4], inactive: -0.05; in assay [5], inactive: -0.017.

With BAD (UniProt Q92934), the log2 fold change in assay [1] was inactive: -0.127; in assay [2], inactive: 0.006; in assay [3], inactive: -0.056; in assay [4], inactive: 0.024; in assay [5], inactive: -0.039.

On to B4GALT1 (UniProt P15291), for which the log2 fold change in assay [1] is inactive: 0; in assay [2], inactive: 0.134; in assay [3], inactive: -0.081; in assay [4], inactive: -0.023; in assay [5], inactive: -0.001.

BCAP29 isoform 2 (UniProt Q9UHQ4): the log2 fold change in assay [1] was inactive: -0.029; in assay [2], inactive: 0.134; in assay [3], inactive: 0.007; in assay [4], inactive: -0.001; in assay [5], inactive: -0.002.

Take BORCS6 (UniProt Q96GS4): the log2 fold change in assay [1] was inactive: -0.061; in assay [2] it was inactive: 0.049; in assay [3] it was inactive: 0.028; in assay [4], inactive: -0.015; in assay [5], inactive: 0.005.

With BCL10 (UniProt O95999), the log2 fold change was inactive: 0 in assay [1]; inactive: -0.02 in assay [2]; inactive: 0.009 in assay [3]; inactive: -0.02 in assay [4]; inactive: 0.009 in assay [5].

Turning to BORCS5 (UniProt Q969J3), the log2 fold change is inactive: -0.061 in assay [1]; inactive: 0.136 in assay [2]; inactive: 0.008 in assay [3]; inactive: 0.026 in assay [4]; inactive: -0.115 in assay [5].

As for BLVRB (UniProt P30043), the log2 fold change in assay [1] is inactive: -0.033; in assay [2] it was inactive: -0.116; in assay [3], inactive: 0.007; in assay [4], inactive: 0.016; in assay [5] it was inactive: 0.041.
